This data set can be described thus: general procedure: Fmoc solid-phase peptide synthesis; Rink amide AM resin; HCTU; HATU/HOAt; HBTU/HOBt for cyclisation. As to conditions: whole synthesis, TFA salt.

As for H2N-K(Dabcyl)-TSAVLQSGFRKM-E(EDANS)-NH2, the isolated mass is reported as 42 mg. Further, the isolated yield (based on resin loading, scale of the general procedure 300 mg resin) is 12.6%.

These data come from patent publication US11753447B2 (priority 2020, dated 2023).
